Measurements published in PubChem BioAssay (NCATS).
The shares of active, inactive and inconclusive entries below differ from those in the screen. For some assays here: Potencies of inconclusive entries are doubtful fits and often do not repeat. The source holds several records for some structures; these can differ, active in one and inactive in another. Activity calls are given as the source filed them. The call rests on the fitted dose curve; in most records, active means well fitted curve in the direction sought with a large enough effect; inconclusive means small, poorly fitted or top-dose-only effect, or another doubt; inactive means no such curve, though single readings can be large; an effect the other way counts as inactive or inconclusive.

Sequences of proteins named here, by UniProt entry; tags and fusion partners are left off. A change or cut given only in a name is not applied to a line headed by its entry.
UniProt O15648: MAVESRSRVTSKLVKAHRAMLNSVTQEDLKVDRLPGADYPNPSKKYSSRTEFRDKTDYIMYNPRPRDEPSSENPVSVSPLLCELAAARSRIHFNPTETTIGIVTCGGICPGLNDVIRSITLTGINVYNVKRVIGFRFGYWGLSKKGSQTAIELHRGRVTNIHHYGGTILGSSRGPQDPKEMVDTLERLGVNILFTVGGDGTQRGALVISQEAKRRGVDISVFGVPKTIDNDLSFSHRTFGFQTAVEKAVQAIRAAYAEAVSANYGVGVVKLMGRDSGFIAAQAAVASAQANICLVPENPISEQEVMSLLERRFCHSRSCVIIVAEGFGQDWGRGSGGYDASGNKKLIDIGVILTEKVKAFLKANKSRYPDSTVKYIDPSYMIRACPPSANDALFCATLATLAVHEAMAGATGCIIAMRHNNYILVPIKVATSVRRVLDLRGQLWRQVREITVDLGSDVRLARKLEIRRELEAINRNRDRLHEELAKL
UniProt O89049, whole entry, looked up: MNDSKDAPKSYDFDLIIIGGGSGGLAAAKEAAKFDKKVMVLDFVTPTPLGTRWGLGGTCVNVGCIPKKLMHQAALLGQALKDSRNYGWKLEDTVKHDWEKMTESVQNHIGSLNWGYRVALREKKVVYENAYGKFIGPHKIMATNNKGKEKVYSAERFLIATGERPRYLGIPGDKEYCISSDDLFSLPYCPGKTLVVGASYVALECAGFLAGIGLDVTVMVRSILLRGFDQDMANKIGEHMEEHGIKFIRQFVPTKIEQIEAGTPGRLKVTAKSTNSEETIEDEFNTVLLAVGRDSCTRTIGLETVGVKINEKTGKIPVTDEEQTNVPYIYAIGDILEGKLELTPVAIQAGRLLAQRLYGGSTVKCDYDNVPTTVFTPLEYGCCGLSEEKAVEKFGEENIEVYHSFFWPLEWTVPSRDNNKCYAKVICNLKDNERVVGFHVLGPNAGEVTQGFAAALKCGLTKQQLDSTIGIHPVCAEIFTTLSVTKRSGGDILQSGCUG
UniProt Q99549: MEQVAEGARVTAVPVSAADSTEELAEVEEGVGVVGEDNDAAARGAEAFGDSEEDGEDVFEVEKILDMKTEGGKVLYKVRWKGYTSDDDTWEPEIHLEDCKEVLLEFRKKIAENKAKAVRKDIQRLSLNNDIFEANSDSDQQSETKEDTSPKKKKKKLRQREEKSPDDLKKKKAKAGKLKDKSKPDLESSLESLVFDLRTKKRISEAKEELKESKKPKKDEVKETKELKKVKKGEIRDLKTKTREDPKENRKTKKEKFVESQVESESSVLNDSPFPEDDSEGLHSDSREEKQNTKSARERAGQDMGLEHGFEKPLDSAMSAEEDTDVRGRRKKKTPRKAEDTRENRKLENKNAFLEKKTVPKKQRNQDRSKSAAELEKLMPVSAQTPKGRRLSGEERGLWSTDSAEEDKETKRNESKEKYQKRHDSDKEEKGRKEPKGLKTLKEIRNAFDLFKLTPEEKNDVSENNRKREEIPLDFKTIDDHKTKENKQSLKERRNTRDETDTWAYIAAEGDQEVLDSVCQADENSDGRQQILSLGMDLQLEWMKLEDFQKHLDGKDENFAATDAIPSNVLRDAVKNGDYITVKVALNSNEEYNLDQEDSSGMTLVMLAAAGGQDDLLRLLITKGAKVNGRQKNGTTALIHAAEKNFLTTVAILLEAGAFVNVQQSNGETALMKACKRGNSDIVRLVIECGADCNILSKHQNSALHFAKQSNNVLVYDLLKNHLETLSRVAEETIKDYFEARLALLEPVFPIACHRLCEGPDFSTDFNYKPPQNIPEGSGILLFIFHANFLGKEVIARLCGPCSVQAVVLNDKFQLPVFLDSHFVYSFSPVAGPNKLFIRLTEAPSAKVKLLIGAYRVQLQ
UniProt P83916, whole entry, looked up: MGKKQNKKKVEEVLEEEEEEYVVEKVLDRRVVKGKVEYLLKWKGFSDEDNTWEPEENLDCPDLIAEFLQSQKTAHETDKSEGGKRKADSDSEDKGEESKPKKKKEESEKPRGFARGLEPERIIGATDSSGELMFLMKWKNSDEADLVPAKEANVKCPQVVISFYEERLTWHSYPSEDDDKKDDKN

Tests used:
[1] = molecular target: ATP-dependent 6-phosphofructokinase (Trypanosoma brucei brucei) (UniProt O15648); experiment: qHTS Validation Assay to Find Inhibitors of T. brucei phosphofructokinase (AID 485368)
Procedure, shortened: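 qHTS format, up to 57 uM. PFK 1.25 nM; F6P 0.5 mM; ATP 0.1 mM; 5 mM MgCl2, 0.01% Tween20, 0.1% BSA; 0.1 M TEA pH 8.0; 45 min RT; ADP-Glo readout; no-enzyme control = full inhibition.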

[2] = molecular target: Thioredoxin reductase 1, cytoplasmic (Rattus norvegicus) (UniProt O89049); experiment: qHTS Assay for Substrates of Mammalian Selenoprotein Thioredoxin Reductase 1 (TrxR1) (AID 488772);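 further: a drop in NADPH fluorescence below the no-compound background marks a TrxR1 substrate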
Procedure, shortened: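 In this dual-purpose format, potential substrates are identified from the first fluorescence read after selenite addition, not from the 8-minute delta. Rat enzyme is preincubated with NADPH and then with compound at ~22 deg C.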

[3] = molecular target: Thioredoxin reductase 1, cytoplasmic (Rattus norvegicus) (UniProt O89049); experiment: qHTS Assay for Inhibitors of Mammalian Selenoprotein Thioredoxin Reductase 1 (TrxR1) (AID 488773); conditions: Potency: inhibition; further: nearly all actives have a fitted effect of over 40% in size
Procedure, shortened: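 Inhibition is scored from the loss of NADPH fluorescence between first and last reads of an 8-min kinetic run. Selenite (400 uM) was the substrate, added after 15 min compound preincubation at room temperature.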

[4] = molecular target: M-phase phosphoprotein 8 (Homo sapiens) (UniProt Q99549); experiment: qHTS Validation Assay for Inhibitors for MPP8 Chromodomain Interactions with Methylated Histone Tails (AID 488949); further: nearly all actives have a fitted effect of over 55% in size
Procedure, shortened: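 AlphaScreen proximity signal from streptavidin donor and Ni-chelate acceptor beads (10 ug/mL each) reported binding of MPP8 to trimethyl-K9 H3(1-18) peptide, both at 50 nM. The complex formed 30 min before a 30 min compound exposure at room temperature, in PBS pH 7.4.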

[5] = Quantitative high throughput screen for delayed death inhibitors of the malarial parasite plastid, 48 hour incubation (AID 488752); further: nearly all actives have a fitted effect of over 65% in size
Procedure, shortened: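 Cultures: infected erythrocytes at final 2% hematocrit and 0.1% parasitemia in Albumax-supplemented RPMI. Parasites express integrated firefly luciferase. Incubation with compound lasts 48 h before luminescent detection of remaining reporter activity.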

[6] = molecular target: Chromobox protein homolog 1 (Homo sapiens) (UniProt P83916); experiment: qHTS Validation Assay for Inhibitors of HP1-beta Chromodomain Interactions with Methylated Histone Tails (AID 488953); further: nearly all actives have a fitted effect of over 50% in size
Procedure, shortened: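 Compounds pinned into a preassembled complex of HP1-beta and trimethyl-K9 histone H3(1-18) biotin peptide (50 nM each; PBS pH 7.4, 0.01% Tween-20). After 30 min, bead-based AlphaScreen detection followed.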

[7] = Quantitative high throughput screen for delayed death inhibitors of the malarial parasite plastid, 96 hour incubation (AID 488745); further: nearly all actives have a fitted effect of over 70% in size
Procedure, shortened: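 Two-generation (96 h) exposure of luciferase-reporter P. falciparum in erythrocytes, 2% hematocrit, 0.1% parasitemia final, 37 C, 5% CO2, RPMI 1640 with 0.5% Albumax. Growth inhibition scored by reduced luminescence.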
Potency means the concentration at half of the fitted maximal effect.

For `C/C=C(/C)C(=O)O[C@H]1C(C)=C2[C@H]([C@@H]1OC(=O)CCCCCCC)[C@@](C)(OC(C)=O)C[C@H](OC(=O)CCC)[C@@]1(O)[C@H]2OC(=O)[C@@]1(C)O`, which Potency [1] is on record?
The Potency was inconclusive: 37.9 µM [activator, single point].

And the Potency [2]?
The Potency was inconclusive: 21.2 µM [inhibitor, single point].

What about the Potency [3] of the same compound?
The Potency was inconclusive: 37.7 µM [inhibitor, single point].

What about the Potency [4] of the same compound?
Its Potency is “inactive”.

Which Potency [1] does the source give for `CN(N=O)c1ccc(O)c(O)c1` here?
Its Potency is inconclusive: 3.79 µM [falling, full curve].

What about the Potency [3] of the same compound?
The Potency was active: 0.947 µM.

Which Potency [1] does the source give for `COC(=O)C1=CCCN(C)C1` here?
Its Potency is “inactive”.

And the Potency [5]?
The Potency was “inactive”.

Which results are given for `N#C/C(=C/c1ccc(O)c(O)c1)C(N)=S`?
Potency [1]: inconclusive: 9.53 µM [falling, partial curve]; Potency [2]: inconclusive: 29.9 µM [inhibitor, partial curve]; Potency [3]: inconclusive: 15 µM [inhibitor, partial curve]; Potency [6]: active: 12.6 µM

With `c1ccc(CCCN2CCN(CCOC(c3ccccc3)c3ccccc3)CC2)cc1` as the compound, how does the Potency [1] read?
Its Potency is inconclusive: 15.1 µM [falling, partial curve, poor fit].

What about the Potency [7] of the same compound?
The Potency was active: 2.08 µM.

What about the Potency [5] of the same compound?
The Potency was inconclusive: 16.5 µM [inhibitor, single point].

Which results are given for `O=c1c(O)c(-c2ccc(O)c(O)c2)oc2cc(O)cc(O)c12`?
Potency [1]: active: 6.75 µM; Potency [7]: active: 10.4 µM; Potency [5]: inconclusive: 18.5 µM [inhibitor, single point]; Potency [4]: active: 39.8 µM; Potency [6]: inconclusive: 44.7 µM [inhibitor, partial curve]
